Data from US20120289681A1, “CONJUGATES OF CELL-PENETRATING PEPTIDES AND PHOSPHORESCENT METALLOPORPHYRINS FOR INTRACELLULAR OXYGEN MEASUREMENT” (UNIVERSITY COLLEGE CORK, NATIONAL UNIVERSITY OF IRELAND CORK, priority 2009, published 2012).
Residues, ends and D or L forms follow the SMILES beside them. *: point of attachment. X1 = CCOC(=O)CCC1=C(C)c2cc3[nH]c(cc4nc(cc5[nH]c(cc1n2)c(C)c5CCC(=O)OCC)C(C)=C4CCC(=O)NCCNC(=O)CCN1C(=O)CC(*)C1=O)c(C)c3CCC(=O)OCC

How the values were obtained:
[1] = test system: PC12 cells; assay: Oxygen calibration of the intracellular probe (phosphorescence lifetime in hypoxia chamber); assay type: cell-based; settings: non-respiring PC12 cells (antimycin A)
[2] = test system: cells; assay: Intracellular localisation by fluorescent imaging (cell line not stated); assay type: cell-based

Row | Compound | phosphorescence lifetime in deoxygenated conditions ([1]; deoxygenated) | average phosphorescence lifetime under normoxia ([1]; normoxia 20.8% O2) | intracellular localisation (in words) [2]
1 | CCOC(=O)CCC1=C(C)c2cc3[nH]c(cc4nc(cc5[nH]c(cc1n2)c(C)c5CCC(=O)OCC)C(C)=C4CCC(=O)NCCNC(=O)CCN1C(=O)CC(SC[C@H](N)C(=O)N[C@@H](Cc2ccccc2)C(=O)N[C@@H](CCCNC(=N)N)C(=O)N[C@@H](CCCNC(=N)N)C(=O)N[C@@H](CCCNC(=N)N)C(=O)N[C@@H](CCCNC(=N)N)C(=O)N[C@@H](CCCNC(=N)N)C(=O)N[C@@H](CCCNC(=N)N)C(=O)N[C@@H](CCCNC(=N)N)C(=O)N[C@@H](CCCNC(=N)N)C(=O)N[C@@H](CCCNC(=N)N)C(=O)O)C1=O)c(C)c3CCC(=O)OCC (stereo partly shown) [PTCPTE-CFR9] (H-C(X1)FRRRRRRRRR-OH; N-terminus assumed) | 65 us | 33±2 us | –
2 | PEPP5: MTS-CGR9 peptide MGRTVVVLGGGISGLAAGCGRRRRRRRRR labelled with PTCPTE-MI derivative (PTCPTE-MI label) | – | – | preferential co-localisation with mitochondria
3 | Pt-tetrakis(pyridinium)porphine tetrachloride [reference compound] | – | – | accumulated in the nuclei
